PubChem BioAssay AID1259308, NCATS, 2017
Aim: 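Knock-downs that increase output of a recombinant reporter protein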 (primary screen). System: human HEK293 embryonic kidney cells stably expressing firefly luciferase (HEK-CMV-Luc2-Hygro). Knock-down reagent: single siRNA against human genes, 0.8 pmol siRNA per well. Duration: 72 h. Measurement: 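Luciferase light (ONE-Glo) measured on one replicate plate set and viability (CellTiter-Glo) on the other, scaled to a negative control siRNA, with robust z-scores and luciferase per cell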. Reading the numbers: total luciferase, z-score and total luciferase, % of control: higher = more reporter protein produced. Hit rule: 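An siRNA counts as active if its total luciferase robust z-score exceeds 3; genes with two or more such siRNAs out of three were retested with fresh siRNAs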. Calls: active = raised luciferase; inactive = no rise.
Shown is an unselected part of about 59,000 reagents. Over the whole deposit, about 1,510 (2.6%) are marked active. 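Calls use total luciferase alone and ignore viability, so some active siRNAs may act by altering cell number.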 Entries without a mark were called inactive. Reagents against one gene are numbered here. Not all columns of the deposit are shown.

The first 4 entries, to show the layout:
target gene | siRNA no. | total luciferase, z-score | total luciferase, % of control
TMEM94 | 1 | 0.503 | 91.9
TMEM94 | 2 | 0.702 | 95.9
TMEM94 | 3 | -0.0167 | 81.6
HEBP2 | 1 | -0.958 | 62.8

Results, repeating the preview:
target gene | siRNA no. | total luciferase, z-score | total luciferase, % of control
TMEM94 | 1 | 0.503 | 91.9
TMEM94 | 2 | 0.702 | 95.9
TMEM94 | 3 | -0.0167 | 81.6
HEBP2 | 1 | -0.958 | 62.8
HEBP2 | 2 | 0.23 | 86.5
HEBP2 | 3 | -0.463 | 72.7
FCRLA | 1 | 0.205 | 86
FCRLA | 2 | -0.237 | 77.2
FCRLA | 3 | 0.692 | 95.6
CDK8 | 1 | -0.799 | 66
CDK8 | 2 | -0.64 | 69.2
CDK8 | 3 | -1.95 | 43.2
FBLL1 | 1 | 0.536 | 92.5
FBLL1 | 2 | 0.811 | 98
FBLL1 | 3 | -0.968 | 62.6
ITPKA | 1 | -0.787 | 66.2
ITPKA | 2 | 0.131 | 84.5
ITPKA | 3 | 0.343 | 88.7
OR6B1 | 1 | 0.124 | 84.3
OR6B1 | 2 | 0.0313 | 82.5
OR6B1 | 3 | 0.693 | 95.7
TSPAN3 | 1 | 0.952 | 101
TSPAN3 | 2 | -0.00775 | 81.7
TSPAN3 | 3 | 1.3 | 108
SPANXN3 | 1 | 2.56 | 133
SPANXN3 | 2 | 0.907 | 99.9
SPANXN3 | 3 | 0.101 | 83.9
NT5DC3 | 1 | -0.797 | 66
NT5DC3 | 2 | -0.2 | 77.9
NT5DC3 | 3 | -0.0901 | 80.1
RPGR | 1 | 0.381 | 89.5
RPGR | 2 | 0.696 | 95.7
RPGR | 3 | -0.557 | 70.8
TRMT10C | 1 | 1.56 | 113
TRMT10C | 2 | -0.0248 | 81.4
TRMT10C | 3 | 0.923 | 100
LARP7 | 1 | -0.0252 | 81.4
LARP7 | 2 | 1.52 | 112
LARP7 | 3 | 0.0139 | 82.2
KCNAB1 | 1 | 0.347 | 88.8
KCNAB1 | 2 | -1.45 | 53.1
KCNAB1 | 3 | 0.0325 | 82.5
FOXL2 | 1 | -0.072 | 80.5
FOXL2 | 2 | 0.0877 | 83.6
FOXL2 | 3 | 2.28 | 127
INTS5 | 1 | 2.81 | 138
INTS5 | 2 | 1.59 | 114
INTS5 | 3 | 0.502 | 91.9
IL4R | 1 | -0.955 | 62.9
IL4R | 2 | 1.71 | 116
IL4R | 3 | -0.124 | 79.4
NHSL2 | 1 | -0.371 | 74.5
NHSL2 | 2 | 2.3 | 128
NHSL2 | 3 | -0.668 | 68.6
NHSL2 | 4 | -2.19 | 38.4
NHSL2 | 5 | 0.0667 | 83.2
NHSL2 | 6 | -0.329 | 75.3
